Test results as given in PubChem BioAssay AID504375 (National Center for Advancing Translational Sciences (NCATS), 2011).
Out of some 1,600 compounds screened, about 25 (2%) were called active. Roughly 7% stayed inconclusive and do not appear here. Calls come from the whole dose curve; as a rule, active = well fitted inhibition curve with a large enough effect; inconclusive = small, poorly fitted or top-dose-only effect, or effect the other way; inactive = no such curve, though single readings can be large or run the other way. This is one part of the list.

Protein sequences, listed by entry. Tags and fused reporters are not part of them.
UniProt Q01196, whole entry, looked up: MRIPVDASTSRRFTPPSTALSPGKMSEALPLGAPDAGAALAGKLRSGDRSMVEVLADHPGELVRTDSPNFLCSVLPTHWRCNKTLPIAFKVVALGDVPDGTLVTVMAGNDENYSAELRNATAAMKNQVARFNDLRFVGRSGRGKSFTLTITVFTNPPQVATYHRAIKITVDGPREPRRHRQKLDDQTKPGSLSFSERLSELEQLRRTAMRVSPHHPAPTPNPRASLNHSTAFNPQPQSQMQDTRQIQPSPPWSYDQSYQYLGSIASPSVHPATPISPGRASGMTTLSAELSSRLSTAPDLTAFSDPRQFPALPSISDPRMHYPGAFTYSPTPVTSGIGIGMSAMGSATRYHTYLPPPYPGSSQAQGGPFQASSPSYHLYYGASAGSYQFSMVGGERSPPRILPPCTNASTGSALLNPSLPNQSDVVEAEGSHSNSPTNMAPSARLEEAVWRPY
UniProt Q13951, whole entry, looked up: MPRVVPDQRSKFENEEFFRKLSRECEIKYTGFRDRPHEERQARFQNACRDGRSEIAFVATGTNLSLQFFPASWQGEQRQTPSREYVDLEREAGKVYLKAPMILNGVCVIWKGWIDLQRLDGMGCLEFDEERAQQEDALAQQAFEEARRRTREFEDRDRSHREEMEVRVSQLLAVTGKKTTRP

Each molecule was assayed against Runt-related transcription factor 1 (Homo sapiens) + Core-binding factor subunit beta (Homo sapiens) (UniProt Q01196+Q13951) (assay: qHTS Assay for Compounds Blocking the Interaction Between CBF-beta and RUNX1 for the Treatment of Acute Myeloid Leukemia: Hit Validation with Orthogonal Assay). Settings: CBFbeta-RUNX1 binding orthogonal assay, biochemical; series mostly up to 41 µM; activity change, negative = inhibition: at the top concentration.
Procedure, shortened: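 This is an orthogonal TR-FRET assay. His6-CBF-beta and biotin-RUNX1 (30 nM each) were preincubated with compound for 30 min, then Tb-anti-His antibody (0.44 ng) and streptavidin-XL665 (5 nM) were added. The signal was read after 90 min.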
% is set by controls: 0 for no effect and ±100 for the full control effect; potency is the fitted concentration of half-maximal effect.

Activity change, negative = inhibition, inactive:
Nc1ccn([C@@H]2O[C@H](CO)[C@@H](O)[C@@H]2O)c(=O)n1 -5.86% [at 82.4 µM], Cn1c(=O)c([N+](=O)[O-])c(NCc2ccccc2Cl)c2ccccc21 2.23%, Cc1c(C(=O)/C=C/N(C)C)nnn1-c1ccc(Cl)c(Cl)c1 5.85%, CC(C)NC(=O)Nc1cccc(Cl)c1 14.8%, Cc1nc(-c2cc(C#N)c(Sc3cccc(C(F)(F)F)c3)nc2C)cs1 0.196%, CCOC(=O)C(=CNNc1c(C)csc1C(=O)OC)C(=O)OCC 0.82%, Cc1nc([N+](=O)[O-])cn1C(C)C -1.09%, Cc1ccc(Nc2ccccc2)nn1 -1.1%, Cn1nc2c3ccccc3n(Cc3ccccc3)c2nc1=S -0.881%, NNC(=O)c1ccc(Cn2cc(Br)cn2)o1 10%, CCOc1ccc2nc(N/C(N)=N/C(=S)Nc3cccc(OC)c3)nc(C)c2c1 5.46%, O=[N+]([O-])c1cc(Cl)cc2c1nc(NCCO)c1ccccc12 11.2%, Cc1nc2c(c(=O)c3ccccc3n2C)c(=O)n1-c1ccccc1 1.95%, CC(=O)Oc1ccc(C(=O)[C@H]2[C@H]3C(=O)N(c4ccc(C)cc4C)C(=O)[C@H]3[C@@H]3C=CC=NN32)cc1 30.8%, CCOC(=O)C1=C(N)Oc2c(oc(CO)cc2=O)C1c1ccc(Cl)cc1 (stereo not given) 3.21%, COC(=O)c1scc(C)c1NC(=O)/C=C/C(=O)O -12.4%, O=C(O)C1Nc2c(O)cc(Cl)c([N+](=O)[O-])c2C2C=CCC12 (stereo not given) -29.8%, CC(C)(O)P(=O)(O)CCc1ccccc1 15.2%, CCC(=O)Nc1cccc(-c2cn3cccc(C)c3n2)c1 1.54%, CCNC(=O)NC(=O)c1csc([N+](=O)[O-])c1 48.8%, CN1CCN(C(=O)C23CC4CC(C)(CC(C)(C4)C2)C3)CC1 -9.9%, Cc1cc(NS(=O)(=O)c2ccc(NC(=O)CCSc3ccc(F)cc3)cc2)nc(C)n1 1.09%, COc1ccc(NC(=O)CCC(=O)N/N=C/c2ccncc2)cc1 6.41%, Nc1ccc2c(c1)nnn2-c1ccccc1 0.477%, Cc1cc(C)cc(NCCC#N)c1 -10.6%, CCCc1cc(=O)c2ccc(OC/C(C)=N/O)cc2o1 -10.5%, Cc1nc([N+](=O)[O-])cn1CC(O)c1ccc(Cl)cc1 (stereo not given) 6.18%, Cc1ccc(S(=O)(=O)N(C)C)cc1[N+](=O)[O-] 11.9%, Cc1ccc(NC(=O)CSc2n[nH]c(N)n2)cc1S(=O)(=O)N1CCOCC1 8.81%, CC(=O)c1nnn(-c2ccc(F)cc2F)c1C -8.38%, O=S(=O)(c1ccc(C(F)(F)F)cc1)N1CCCN(c2ccc(C(F)(F)F)cn2)CC1 -8%, CC(=O)Nc1ccc(S(=O)(=O)N2CCN(CC(=O)N3CCOCC3)CC2)cc1 -4.01%, Cc1cc(=O)[nH]c(SCC(=O)NN(c2ccccc2)c2ccccc2)n1 6.04%, O=C(O)c1ccccc1C(=O)Nc1ccccc1[N+](=O)[O-] 6.23%, CCN(CC)C(=O)CSc1nnc2nnc3cc(C)ccc3n12 84%, COc1ccccc1N1C(=O)C=C(Sc2nc(C)cc(C)n2)C1=O 5.51%, COc1cc(/C=N/NC(=O)Cn2cnc3c2c(=O)n(C)c(=O)n3C)ccc1O -3.3%, COc1ccc(C(=O)CN2C(=O)c3ccccc3S2(=O)=O)cc1 4.49%, Cc1ccccc1Nc1ncc(C#N)c(N)n1 5.82%, COc1cc(N=Nc2ccccc2C(=O)O)ccc1O 37.1%, COc1ccc(N/C=C/C(=O)c2ccc(OC)c(OC)c2)cc1 20.7%, COc1cccc(C2Oc3ccccc3C3CC(c4cccs4)=NN32)c1 (stereo not given) -4.17%, O=C(N/N=C/C(Br)=C/c1ccccc1)C(O)c1ccccc1 (stereo not given) 8.96%, COc1cccc(/C=N/NC(=O)Cn2cnc3c2c(=O)n(C)c(=O)n3C)c1 12.8%, CC1SCC(NC(=O)c2ccc(Cl)cc2)CS1 (stereo not given) -3.1%, Cc1onc(-c2c(Cl)cccc2Cl)c1C(=O)c1ccc(F)cc1 -0.245%, O=C(CS(=O)(=O)c1ccc(C(F)(F)F)cn1)NNC(=O)c1ccccc1 -6.59%, COc1cccc(/C=N/NC(=O)Cn2nc([N+](=O)[O-])cc2C)c1 4.69%, Cc1ccc(Cn2nc(C)cc2C(=O)Nc2ccc(Cl)cc2)cc1 5.65%, CC(=O)c1sc(-c2ccccc2)cc1NS(=O)(=O)c1ccc(C)cc1 14.3%, COc1cccc(/C=N/NC(=O)c2cnccn2)c1OC 12.2%, O=Cc1ccc(O)c2ncccc12 29.7%, CC(C)NC(=O)NNC(=O)Cn1nnc(-c2cccc(Cl)c2Cl)n1 2.25%, O=C(Oc1ccc(NC(=O)c2cc3c(cc2Br)OCO3)cc1)c1ccccc1 4.8%, COC(=O)c1cnc(Nc2cccc(C(F)(F)F)c2)c([N+](=O)[O-])c1 31.8%, CC1CC(OC(=O)CN2CCCCC2)CC(C)(C)C1 (stereo not given) 7.39%, CC(O)(c1ccccc1)C(c1ccccc1)C1CCCCN1 (stereo not given) -1.71%, O=C1CC(N2CCN(S(=O)(=O)c3ccccc3)CC2)C(=O)N1c1ccccc1 (stereo not given) 3.16%, CCOC(=O)C1(C)C=C(Nc2cccc(OC)c2)C(=O)N1c1ccccc1 (stereo not given) 2.85%, NNC(=O)c1ccc(COc2cccc3ccccc23)o1 14%, O=C(O)c1ccccc1C1Nc2ccccc2C(=O)N1CCCN1CCOCC1 (stereo not given) -5.48%, CC(=O)c1cc(O)c2ccccc2c1O 54.6%, CCOC(=O)c1c(C)n(C)c2ccc(OC)c(NC(=O)CCN3CCC(Cc4ccccc4)CC3)c12 -10.7%, CC(=O)c1ccc(Sc2ccccc2)c([N+](=O)[O-])c1 17.1%, CCOc1ccc(C2C3=C(CCCC3=O)OC(N)=C2[N+](=O)[O-])cc1 (stereo not given) 19.4%, Oc1ccc2ccccc2c1N=Nc1nccs1 53.1%, CN(C)CCCNc1cc(C(C)(C)C)nc2c(-c3ccccc3)cnn12 9.74%, COC(=O)c1sccc1NC(=O)CC1C(=O)NCCN1C(=O)Nc1ccccc1 (stereo not given) 6.19%, NC(=O)c1c(NC(=O)Cn2nc(C(=O)O)c3ccccc3c2=O)sc2c1CCCC2 3.38%, COc1cccc(/C=N/NC(=O)c2ccc3nc[nH]c3c2)c1 10.1%, CC(=O)N1N=C2c3ccccc3CCC2C1c1cccs1 (stereo not given) 7.29%, O=C(/C=C/c1cn(CC(O)CN2CCCCC2)c2ccccc12)c1ccccc1 (stereo not given) 7.34%, CNS(=O)(=O)c1ccc2ccccc2c1 -5.64%, Cc1ccc(C(=O)N/C(=C\c2ccc(C)o2)C(=O)O)cc1 0.428%, O=c1[nH]c(CSc2cccc[n+]2[O-])nc2ccccc12 8.03%, Cc1onc(-c2c(Cl)cccc2Cl)c1C(=O)N=C(N)N1CC(C)OC(C)C1 (stereo not given) 0.6%, CCOC(=O)CN1NC2(CCCCCC2)NC1=S 6.84%, Nn1c(SCc2cccc(Br)c2)nnc1-c1cccnc1 7.19%, Oc1ccc2ccccc2c1C=Nc1ccccc1 27.2%, O=C(O)c1cc2ccccc2cc1Nc1ccccc1 14.8%, O=C1CC(Sc2ccc(Cl)cc2)C(=O)N1c1ccc2c(c1)OCCO2 (stereo not given) -14.8%, Cc1cc(C)n(CC(=O)N/N=C/c2c[nH]c3ccccc23)n1 2.59%, CC(C)(C)c1ccc(CCC2OCC(C[N+]3(C)CCOCC3)O2)cc1 (stereo not given) 3.25%, CC(C)(NC(=O)c1cc(Cl)c2ccccc2c1O)C(=O)O 30.7%, Nc1cc(=O)[nH]c(SCC(=O)Nc2cc(Cl)ccc2Cl)n1 8.5%, CCc1ccc(/C=N/N2CCN(c3ccccn3)CC2)cc1 -1.44%, Nc1ccc(C(=O)C(=O)c2ccc(N)cc2)cc1 8.11%, O=C(NN1C(=O)/C(=C/c2cccs2)SC1=S)c1cccnc1 33.7%, Cc1cccc(CSc2nnc([C@@H]3CCCN3)o2)c1 -12.5%, Cc1ccnn1CC(=O)N/N=C/c1cn[nH]c1-c1ccccc1 3.54%, Cc1nnc(NC(=O)c2ccccc2NC(=O)c2ccccc2)s1 -23.7%, O=C(O)CCC(=O)NCC(=O)c1ccc(F)cc1 7.94%, Cc1cccc(Nc2nc(N)nc(CCl)n2)c1 -9.59%, CC(=O)C1=C(C)OC(N)=C(C#N)C1c1cccc2ccccc12 (stereo not given) 6.58%, O=C1Nc2ccccc2C1(O)Cc1ccccn1 (stereo not given) 4.27%, Cc1nnsc1-c1nnc(SCC(=O)c2ccc(F)cc2)n1C1CC1 0.183%, CCC1(C)N=C(N)Nc2nc3cc(C)c(C)cc3n21 (stereo not given) 1.86%, CC(=O)Oc1ccc(C(=O)Nc2cccc(-c3nnc(-c4ccco4)o3)c2)cc1 -5.88%, CN1CCN(c2nc3ccccn3c(=O)c2/C=C(\C#N)S(=O)(=O)c2ccccc2)CC1 22.3%, CC(C)(C)c1cc(NCc2ccccn2)n2ncc(-c3ccccc3)c2n1 -6.55%, CC(=O)c1cnn(-c2ccc(Cl)c(Cl)c2Cl)c1C -8.81%, O=c1c2cc(-c3ccccc3)sc2nc2n1N=C(c1cccs1)CS2 11.4%, Cc1cc(-c2ccccc2C(=O)Nc2ccccc2O)on1 -2.53%, COC(=O)Cc1[nH]c(Cl)nc1C(N)=O -1.6%, Oc1ccc(/C=N/NC(=S)Nc2cccnc2)c(O)c1 7.04% [at 82.4 µM], CCOC(=O)CN(C(=O)c1ccccc1[N+](=O)[O-])C(C)(C)C -0.6%, COCCCn1c(=O)/c(=C\c2ccccc2OC(C)C)s/c1=C(/C#N)C(=O)Nc1ccc(C(=O)O)cc1 3.47%, COc1cc(OC)c(C2C(C#N)=C(C)NC(C)=C2C#N)c(C(=O)O)c1 4.34%, Cc1onc(-c2c(Cl)cccc2Cl)c1C(=O)Nc1nc(C(C)(C)C)cs1 6.68%, c1csc(-c2nc3ccccc3s2)c1 4.71%, CSc1cccc(NC(=O)Nc2ccccc2C(N)=O)c1 3.24%, COC(=O)c1[nH]c(C)c(/C(O)=C2\C(=O)C(=O)N(CCN3CCOCC3)C2c2ccc(C)o2)c1C (stereo not given) -1.06%

Potency, active:
Cc1ccc(Cl)cc1NC(=S)N(CCN(C)C)C(C)c1ccccn1 (stereo not given) 1.22 µM, Cc1[nH]c(=O)[nH]c1C(=O)CCCCC(=O)OCC(=O)Nc1ccccn1 0.0447 µM, O=C(O)c1cc(O)c2c(c1)[C@H]([C@H]1c3cc(C(=O)O)cc(O)c3C(=O)c3c(O[C@@H]4OC(CO)C(O)C(O)C4O)cccc31)c1cccc(O[C@@H]3OC(CO)C(O)C(O)C3O)c1C2=O (stereo not given in full) 2.51 µM
